Results as given in PMC11863771 (Cell Communication and Signaling : CCS, 2025).
These are yes or no findings as the source states them, for the method shown. In cells and extracts the contact can be indirect. Some binding calls cover weakened binding; strength is not graded here. One block for each substance: values may come before it.

Sequences of proteins named here, by UniProt entry; tags and fusion partners are left off.
UniProt P35372: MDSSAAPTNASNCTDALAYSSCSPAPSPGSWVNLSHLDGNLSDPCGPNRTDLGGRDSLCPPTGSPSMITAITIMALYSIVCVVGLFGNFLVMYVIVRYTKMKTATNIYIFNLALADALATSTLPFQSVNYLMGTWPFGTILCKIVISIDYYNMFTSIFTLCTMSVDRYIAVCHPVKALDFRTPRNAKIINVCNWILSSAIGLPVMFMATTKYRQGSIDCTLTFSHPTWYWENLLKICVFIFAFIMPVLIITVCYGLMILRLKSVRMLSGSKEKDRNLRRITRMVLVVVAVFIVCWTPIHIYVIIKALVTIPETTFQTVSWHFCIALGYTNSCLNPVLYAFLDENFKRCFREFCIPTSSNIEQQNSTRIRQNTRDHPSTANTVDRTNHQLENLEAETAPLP
UniProt P21453: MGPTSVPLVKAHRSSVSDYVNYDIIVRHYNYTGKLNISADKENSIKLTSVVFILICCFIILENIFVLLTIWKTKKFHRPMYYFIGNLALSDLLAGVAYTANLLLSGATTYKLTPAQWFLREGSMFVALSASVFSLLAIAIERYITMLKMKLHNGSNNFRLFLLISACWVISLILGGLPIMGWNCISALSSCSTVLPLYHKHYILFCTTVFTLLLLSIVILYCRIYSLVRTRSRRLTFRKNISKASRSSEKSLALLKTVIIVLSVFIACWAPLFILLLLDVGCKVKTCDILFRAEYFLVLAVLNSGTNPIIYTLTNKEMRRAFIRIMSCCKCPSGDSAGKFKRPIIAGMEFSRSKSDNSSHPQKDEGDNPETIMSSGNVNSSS
UniProt P61073: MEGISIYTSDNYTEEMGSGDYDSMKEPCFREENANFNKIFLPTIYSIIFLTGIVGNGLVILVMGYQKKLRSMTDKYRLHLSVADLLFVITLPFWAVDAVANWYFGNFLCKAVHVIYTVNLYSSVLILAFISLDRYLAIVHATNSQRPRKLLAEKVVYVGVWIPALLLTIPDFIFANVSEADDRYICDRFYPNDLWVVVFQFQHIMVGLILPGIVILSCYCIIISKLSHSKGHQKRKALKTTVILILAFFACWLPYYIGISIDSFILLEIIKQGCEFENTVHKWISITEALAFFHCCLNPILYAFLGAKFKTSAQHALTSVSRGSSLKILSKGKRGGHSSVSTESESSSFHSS
UniProt P04899: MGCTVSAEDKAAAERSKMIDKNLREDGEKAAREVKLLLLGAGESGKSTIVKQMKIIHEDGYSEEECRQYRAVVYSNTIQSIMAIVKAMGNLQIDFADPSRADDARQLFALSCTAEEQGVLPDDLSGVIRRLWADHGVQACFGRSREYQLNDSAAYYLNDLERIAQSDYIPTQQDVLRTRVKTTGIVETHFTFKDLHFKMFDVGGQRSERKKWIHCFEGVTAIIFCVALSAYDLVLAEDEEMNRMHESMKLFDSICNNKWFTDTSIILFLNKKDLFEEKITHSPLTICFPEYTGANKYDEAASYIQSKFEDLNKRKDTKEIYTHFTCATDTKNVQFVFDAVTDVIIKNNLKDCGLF

Columns and labels:
µOR1-Rluc8 (human) = µOR1-Rluc8 (human) (UniProt P35372); assay: FRET or BRET; quantitative BRET saturation in HEK293A cells: fixed amount of Rluc8-tagged donor, increasing amounts of mCit-tagged acceptor, coelenterazine h 5 µM; no ligand, no further receptor coexpressed
S1P1-mCit (human) [1] = target: S1P1-mCit (human) (UniProt P21453); assay: FRET or BRET; basal pre-association: BRET1 between GPCR-mCit and Gαi2-Rluc8 (cotransfected with Gβ1 and Gγ2) in HEK293A cells, no ligand; with or without coexpressed MYC-S1P1 or Flag-CXCR4
S1P1-mCit (human) [2] = target: S1P1-mCit (human) (UniProt P21453); assay: FRET or BRET; ligand-induced Gαi2 recruitment: BRET1 between GPCR-mCit and Gαi2-Rluc8 (with Gβ1 and Gγ2) in HEK293A cells, CXCL12 (10 nM) and/or S1P (10 nM); with or without coexpressed MYC-S1P1 or Flag-CXCR4
HA-S1P1 (human) = HA-S1P1 (human) (UniProt P21453); assay: proximity ligation; single PLA in transfected HEK293A cells (one antibody, both probes) to detect GPCR homomers
Flag-CXCR4 (human) = Flag-CXCR4 (human) (UniProt P61073); assay: proximity ligation; double PLA in HEK293A cells expressing Flag-CXCR4 and an HA-tagged GPCR; anti-CXCR4 (4G10) and anti-HA-tag (C29F4) antibodies, anti-mouse and anti-rabbit probes
Flag-CXCR4-VC (human) = Flag-CXCR4-VC (human) (UniProt P61073); assay: split reporter; BiFC in HEK293A cells transfected with Flag-CXCR4-VC and a VN-tagged GPCR; fixed, confocal microscopy
[3] = target: S1P1 (endogenous) (human (endogenous in KARPAS299 and primary T cells)) (UniProt P21453); assay: proximity ligation; single PLA in KARPAS299 cells (one antibody for both probes) to identify homomers, endogenous receptors
[4] = target: S1P1 (endogenous) (human (endogenous in KARPAS299 and primary T cells)) (UniProt P21453); assay: proximity ligation; single PLA in primary human CD4+ T cells (one antibody for both probes) to detect homomers, endogenous receptors
[5] = target: CXCR4 (endogenous) (human (endogenous in KARPAS299 and primary T cells)) (UniProt P61073); assay: proximity ligation; double PLA in primary human CD4+ T cells, endogenous receptors; anti-CXCR4 (Ulocuplumab) and anti-S1P1 (#218713), both probe orders
[6] = target: CXCR4 (endogenous) (human (endogenous in KARPAS299 and primary T cells)) (UniProt P61073); assay: proximity ligation; double PLA in KARPAS299 cells (sgControl), endogenous receptors; anti-CXCR4 (Ulocuplumab) and anti-S1P1 (#218713), both probe orders

- binding (µOR1-Rluc8 (human)): no binding
Substance: CXCR4-mCit (from UniProt P61073 1-352) (receptor)

- binding (S1P1-mCit (human) [1]): binds
- binding (S1P1-mCit (human) [2]): binds
Substance: Gαi2-Rluc8 (from UniProt P04899 1-355)

- binding (HA-S1P1 (human)): binds
- binding (Flag-CXCR4 (human)): binds
Substance: HA-S1P1 (from UniProt P21453 1-382) (receptor)

- binding (Flag-CXCR4-VC (human)): binds
Substance: HA-S1P1-VN (from UniProt P21453 1-382) (receptor)

- binding (Flag-CXCR4 (human)): no binding
Substance: HA-µOR1 (from UniProt P35372 1-400) (receptor)

- binding (Flag-CXCR4-VC (human)): no binding
Substance: HA-µOR1-VN (from UniProt P35372 1-400) (receptor)

- binding [3]: binds
- binding [4]: binds
- binding [5]: binds
- binding [6]: binds
Substance: S1P1 (endogenous) (from UniProt P21453 1-382) (receptor)
